{"sequences": {"note": "By UniProt entry, the sequences of proteins in these tests, tags left out. Where a name states a change or a piece, a line headed by the entry shows the natural chain unless it says otherwise.", "UniProt O94782": "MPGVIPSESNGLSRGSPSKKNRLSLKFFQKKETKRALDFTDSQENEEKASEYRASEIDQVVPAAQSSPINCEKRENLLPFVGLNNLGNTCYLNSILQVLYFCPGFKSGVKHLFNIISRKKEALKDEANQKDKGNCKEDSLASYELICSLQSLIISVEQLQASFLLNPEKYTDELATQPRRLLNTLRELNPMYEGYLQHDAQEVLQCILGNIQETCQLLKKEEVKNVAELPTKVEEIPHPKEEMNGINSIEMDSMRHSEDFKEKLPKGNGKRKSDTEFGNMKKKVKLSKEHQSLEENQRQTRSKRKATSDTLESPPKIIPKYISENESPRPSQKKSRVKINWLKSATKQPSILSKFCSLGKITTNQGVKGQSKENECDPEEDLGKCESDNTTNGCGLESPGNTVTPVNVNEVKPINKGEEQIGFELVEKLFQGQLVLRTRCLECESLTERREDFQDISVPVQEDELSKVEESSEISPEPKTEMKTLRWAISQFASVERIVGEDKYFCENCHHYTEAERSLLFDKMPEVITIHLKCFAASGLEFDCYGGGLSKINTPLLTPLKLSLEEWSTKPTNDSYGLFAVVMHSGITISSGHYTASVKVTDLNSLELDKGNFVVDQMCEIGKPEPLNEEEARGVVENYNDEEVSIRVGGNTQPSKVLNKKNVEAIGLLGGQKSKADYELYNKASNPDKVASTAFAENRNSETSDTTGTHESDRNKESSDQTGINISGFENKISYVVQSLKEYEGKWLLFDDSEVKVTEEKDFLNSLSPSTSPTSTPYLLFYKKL"}, "source": "PubChem BioAssay AID743255", "about": "(National Center for Advancing Translational Sciences (NCATS), 2014)", "note": "About 910 (0.23%) of roughly 390,000 compounds were called active. This list was built around the results that the source calls inconclusive (neither active nor inactive); the mix of calls is not that of the screen. Calls follow the shape of the dose curve; as a rule, active = well fitted inhibition curve with a large enough effect; inconclusive = small, poorly fitted or top-dose-only effect; inactive = no such curve, though single readings can be large or run the other way. Potencies beside an inconclusive call are fits to weak or partial responses and may not hold up.", "data": [{"molecular_target": "Ubiquitin carboxyl-terminal hydrolase 1 (Homo sapiens) (UniProt O94782)", "experiment": "Inhibitors of USP1/UAF1: Primary Screen; also: nearly all actives have a fitted effect of over 60% in size; also: potency is read from the fitted curve at half-maximal effect; as to activity change, negative = inhibition: % is scaled to controls: 0 for no effect and ±100 for the full control effect", "conditions": "recombinant USP1/UAF1, Ub-Rhodamine cleavage fluorescence; activity change, negative = inhibition: at 57.1 µM (top of the series)", "in_short": "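In this screen, compounds sit with the deubiquitinase complex (1nM) for 15 min at room temperature before Ub-Rho is added at 150nM final. Fluorescence rise is then followed for 6 reads every 60 seconds.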", "values": [{"molecule": "COCCNC(=S)NC1CC2CCC(C1)N2Cc1ccccc1", "note": "(stereo unspecified)", "Potency": "inconclusive: 35.5 µM [inhibitor, partial curve]"}, {"molecule": "CCOc1ccc(N(Cc2ccccc2)C(=O)c2nc(SCC)ncc2Cl)cc1", "Potency": "inconclusive: 1.58 µM [inhibitor, full curve]"}, {"molecule": "C=CC[C@@H]1Cc2c(Br)ccc(Br)c2[C@@H](CC=C)N1", "Potency": "inconclusive: 44.7 µM [inhibitor, partial curve, poor fit]"}, {"molecule": "O=C(NC1CCCCC1)c1ccc2c(c1)N(Cc1cccc(F)c1)C(=O)c1ccccc1S2", "Potency": "inconclusive: 3.55 µM [inhibitor, full curve]"}, {"molecule": "CCSc1nnc(NC(=O)C(Cc2ccccc2)n2cccc2)s1", "note": "(stereo unspecified)", "Potency": "inconclusive: 1.26 µM [inhibitor, full curve]"}, {"molecule": "Cn1cnc(S(=O)(=O)N2CCC(C(=O)Nc3ccc(F)cc3F)CC2)c1", "Potency": "inconclusive: 0.562 µM [inhibitor, full curve, poor fit]"}, {"molecule": "CCCCN(C)CCCNC(=O)Cn1ncc2c3ccccc3n(Cc3cccc(Cl)c3)c2c1=O", "Potency": "inconclusive: 39.8 µM [inhibitor, partial curve, poor fit]"}, {"molecule": "CCOc1ccccc1C(=O)Oc1c(S(=O)(=O)c2ccc(C)cc2)c(C)nn1-c1ccccc1", "Potency": "inconclusive: 35.5 µM [inhibitor, partial curve]"}, {"molecule": "Cc1cccc(C(=O)N2CCC(c3nc(-c4ccc(S(=O)(=O)N5CCOCC5)cc4)no3)CC2)c1", "Potency": "inconclusive: 5.62 µM [inhibitor, partial curve]"}, {"molecule": "CCCCN(CC)Cc1c(O)ccc2c(-c3ccccc3)cc(=O)oc12", "Potency": "inconclusive: 44.7 µM [inhibitor, partial curve, poor fit]"}, {"molecule": "COc1ccc(NCc2cc3cc4c(cc3n(CC(=O)Nc3cccc(F)c3)c2=O)OCO4)cc1", "Potency": "inconclusive: 17.8 µM [inhibitor, partial curve]"}, {"molecule": "Cc1cc(C(=O)N2CCC(C(=O)O)CC2)c(C(F)(F)F)o1", "Potency": "inconclusive: 50.1 µM [inhibitor, partial curve, poor fit]"}, {"molecule": "COc1ccccc1NC(=O)N(C)C[C@@H]1OCc2cn(nn2)CCCC(=O)N([C@H](C)CO)C[C@H]1C", "Potency": "inconclusive: 6.31 µM [inhibitor, full curve, poor fit]"}, {"molecule": "O=C(CSc1nc(=O)n(Cc2cccnc2)c2c1CCC2)Nc1cccc(Cl)c1", "Potency": "inconclusive: 100 µM [inhibitor, partial curve, poor fit]"}, {"molecule": "CCOc1ccccc1C=NNC(=O)c1cccc2ccccc12", "Potency": "inactive"}, {"molecule": "CCCc1cc2c(cc1NC(=O)Cc1ccccc1)OCO2", "activity change, negative = inhibition": "inconclusive: -31.4% [inhibitor]"}, {"molecule": "CSc1ncc(Cl)c(C(=O)Nc2cc(C(F)(F)F)ccc2Cl)n1", "Potency": "inconclusive: 44.7 µM [inhibitor, partial curve]"}, {"molecule": "O=C(NCc1ccco1)c1cccc2c1C(=O)c1ccc(N3CCC(Cc4ccccc4)CC3)cc1S2(=O)=O", "Potency": "active: 28.2 µM"}, {"molecule": "O=C(CSC(=S)N1CCSCC1)c1ccccc1", "Potency": "inactive"}, {"molecule": "O=C(O)CCN1C(=O)/C(=C\\c2cccc(Oc3ccccc3)c2)SC1=S", "Potency": "inconclusive: 44.7 µM [inhibitor, partial curve, poor fit]"}, {"molecule": "CC(C)Oc1ccc(C(=O)N2CCN(c3nc4c(F)cc(F)cc4s3)CC2)cc1", "Potency": "inactive"}, {"molecule": "O=c1c(N2CCN(c3ccccc3)CC2)csc2ccc(Cl)cc12", "Potency": "inactive"}, {"molecule": "CC1CCCC(C)N1C(=O)COC(=O)CN1C(=O)c2ccccc2C1=O", "note": "(stereo unspecified)", "Potency": "inactive"}, {"molecule": "CCN(CC)c1cc(C)c2cc(NC(=O)/C=C/c3ccccc3Cl)ccc2n1", "Potency": "inconclusive: 79.4 µM [inhibitor, partial curve, poor fit]"}, {"molecule": "COc1ccc(N2CC(NC(=O)C(=O)c3c[nH]c4ccccc34)CC2=O)cc1", "note": "(stereo unspecified)", "Potency": "inactive"}, {"molecule": "O=C1C(NS(=O)(=O)c2cccs2)=C(N2CCN(c3cccc(C(F)(F)F)c3)CC2)C(=O)c2ccccc21", "Potency": "inactive"}, {"molecule": "COc1ccc(OC)c2sc(N3CCN(c4ccccc4)CC3)nc12", "Potency": "inconclusive: 22.4 µM [inhibitor, partial curve]"}, {"molecule": "COc1cc2cc(/C=C/C(=O)c3ccco3)c(Cl)nc2cc1OC", "Potency": "inconclusive: 35.5 µM [inhibitor, partial curve]"}, {"molecule": "Cc1cccc(N(C)S(=O)(=O)c2ccc(-c3cc(C)no3)s2)c1", "Potency": "inconclusive: 63.1 µM [inhibitor, partial curve, poor fit]"}, {"molecule": "CC(C)(C)c1ccc(OCCNCc2ccccc2)cc1", "Potency": "inactive"}, {"molecule": "CCOC(=O)N1CCN(c2nnc(-c3ccc(C)cc3)c3ccccc23)CC1", "Potency": "inactive"}, {"molecule": "CCCCC1=CC2=C(c3ccco3)C(=O)C(C)(OC(=O)c3ccc(OC)cc3)C(=O)C2=CN1CCc1ccccn1", "note": "(stereo unspecified)", "Potency": "inconclusive: 5.01 µM [inhibitor, partial curve]"}, {"molecule": "Cc1ccccc1OCC(O)Cn1c(=N)n(Cc2ccccc2)c2ccccc21", "note": "(stereo unspecified)", "Potency": "inactive"}, {"molecule": "CCOc1ccc(C2CC(=O)NC(SCC(=O)OC)=C2C#N)cc1", "note": "(stereo unspecified)", "Potency": "inconclusive: 4.47 µM [inhibitor, partial curve]"}, {"molecule": "Cc1ccc(NC(=O)Cn2c(=O)n(CC3CCC(C(=O)NC(C)C)CC3)c(=O)c3sccc32)cc1", "note": "(stereo unspecified)", "Potency": "inconclusive: 100 µM [inhibitor, partial curve, poor fit]"}, {"molecule": "CCCCNS(=O)(=O)CCNCc1ccc(OC)cc1", "Potency": "inconclusive: 44.7 µM [inhibitor, partial curve, poor fit]"}, {"molecule": "O=C(COC(=O)Cc1ccc(Cl)cc1Cl)NC1CC1", "Potency": "inconclusive: 7.08 µM [inhibitor, partial curve, poor fit]"}, {"molecule": "Cc1[nH]n(C2=NCCS2)c(=O)c1N=Nc1ccccc1", "Potency": "inconclusive: 5.01 µM [inhibitor, partial curve]"}, {"molecule": "COCCn1c(C)cc(C(=O)COC(=O)c2ccc(-n3nc(C)cc3C)cc2)c1C", "Potency": "inconclusive: 44.7 µM [inhibitor, partial curve]"}, {"molecule": "CCOC(=O)C1CCN(C(=O)C2COc3ccccc3O2)CC1", "note": "(stereo unspecified)", "Potency": "inconclusive: 0.316 µM [inhibitor, full curve]"}, {"molecule": "Cn1c(N)c(C(=O)c2cc(-c3ccncc3)nc3ccccc23)c(=O)n(C)c1=O", "Potency": "inconclusive: 1 µM [inhibitor, full curve, poor fit]"}]}]}
